Among all 580,000 compounds or so, about 6,100 (1.1%) were called active. Inconclusive means that the source gave no clear call. Such entries were picked first, then a sample of the others. The call rests on the fitted dose curve; in most records, active means well fitted inhibition curve with a large enough effect; inconclusive means small, poorly fitted or top-dose-only effect, or another doubt; inactive means no such curve, though single readings can be large or run the other way. Where the call is inconclusive, the potency comes from a doubtful curve fit.
The molecules below were run against Polyunsaturated fatty acid lipoxygenase ALOX12 (Homo sapiens) (UniProt P18054) (assay: Primary qHTS assay for inhibitors of human arachidonate 12S-lipoxygenase (ALOX12): Round 2). Details: purified 12hLO, xylenol orange hydroperoxide absorbance; activity change, negative = inhibition: at 108 µM (top of the series) unless noted.
Procedure, shortened: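 Purified human 12hLO (150 nM final) in 25 mM Hepes, 0.01% Triton X-100, pH 7.0 was preincubated 15 min at room temperature with compound. Then 40 uM arachidonic acid was added, 30 min. Hydroperoxide was read by Fe-XO absorbance ratio 573/405 nm.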
On the % scale 0 is the no-effect control and ±100 the full control effect; potency means the concentration at half of the fitted maximal effect.

Sequences of proteins named here, by UniProt entry; tags and fusion partners are left off. A change or cut given only in a name is not applied to a line headed by its entry.
UniProt P18054: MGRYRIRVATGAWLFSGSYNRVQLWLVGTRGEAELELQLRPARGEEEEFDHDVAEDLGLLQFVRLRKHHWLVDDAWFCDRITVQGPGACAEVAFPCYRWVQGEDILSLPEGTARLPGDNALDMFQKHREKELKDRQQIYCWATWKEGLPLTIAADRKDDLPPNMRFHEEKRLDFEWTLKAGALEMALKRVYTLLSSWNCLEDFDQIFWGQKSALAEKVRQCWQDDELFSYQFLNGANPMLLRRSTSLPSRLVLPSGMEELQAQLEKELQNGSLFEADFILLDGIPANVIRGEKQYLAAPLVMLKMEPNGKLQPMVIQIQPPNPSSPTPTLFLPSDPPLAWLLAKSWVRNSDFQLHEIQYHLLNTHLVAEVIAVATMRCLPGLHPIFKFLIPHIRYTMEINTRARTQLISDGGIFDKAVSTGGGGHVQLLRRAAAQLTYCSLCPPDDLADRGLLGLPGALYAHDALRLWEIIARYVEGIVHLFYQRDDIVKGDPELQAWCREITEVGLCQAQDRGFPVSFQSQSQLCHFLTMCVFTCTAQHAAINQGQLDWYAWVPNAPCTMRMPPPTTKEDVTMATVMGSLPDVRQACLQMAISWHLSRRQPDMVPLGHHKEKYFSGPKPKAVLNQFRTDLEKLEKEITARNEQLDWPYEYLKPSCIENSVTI

SMILES | Potency | activity change, negative = inhibition
O=S(=O)(c1ccc(Br)cc1)c1nc(-c2ccccc2)oc1N1CCOCC1 | inconclusive: 39.8 µM [inhibitor, partial curve, poor fit] | –
COc1ccc(-c2cnc(C)o2)cc1S(=O)(=O)Nc1ccc(C)cc1 | inconclusive: 1.78 µM [inhibitor, full curve, poor fit] | –
Cc1ccc(/C=C/C(=O)OCC(=O)NC(=O)NCc2ccccc2)cc1 | inactive | –
Cc1[nH]c(=O)c(Cc2ccccc2)c(O)c1C#N | inactive | –
N=C(N)SCc1cn(-c2ccccc2)nc1-c1ccc(Br)cc1 | inconclusive: 50.1 µM [inhibitor, partial curve, poor fit] | –
COc1ccc(-c2cc3nc4c(c(=O)n3[nH]2)CN(C(=O)c2n[nH]c3c2CCCCCC3)CC4)cc1 | inactive | –
CCCCCc1cc(=O)oc2c(C(CCN3CCCCC3)c3ccc(OC)cc3)c(OC)cc(OC)c12 (stereo not given) | inconclusive: 35.5 µM [inhibitor, partial curve, poor fit] | –
Cc1ccc(C)c(CN2CCN(c3nc4c(c(=O)[nH]c(=O)n4C)n3Cc3ccccc3F)CC2)c1 | inconclusive: 28.2 µM [inhibitor, partial curve, poor fit] | –
CCN(CC)CCNC(Cc1ccccc1)c1cccc(OC)c1 (stereo not given) | inconclusive: 112 µM [inhibitor, single point] | –
Cc1ccc(CN2C[C@H]3CN(C(=O)C4CCOCC4)CCN3C2=O)cc1 | inactive | –
CC(NC(=O)CCSCCC(=O)NC(C)c1ccccc1)c1ccccc1 (stereo not given) | inactive | –
COc1ccc(/C=C/c2ccc3cccc(O)c3n2)cc1OC | inconclusive: 44.7 µM [inhibitor, partial curve, poor fit] | –
COc1ccccc1CNC(=O)N1CCN(S(=O)(=O)c2ccc(Cl)cc2)CC1 | inconclusive: 100 µM [inhibitor, partial curve, poor fit] | –
O=C(CN1CCN(C(=O)C2CC2)CC1)Nc1cc(C(F)(F)F)cc(C(F)(F)F)c1 | inactive | –
CC(C)c1noc(C(C)Nc2ccc3oc(C4CC4)nc3c2)n1 (stereo not given) | inactive | –
CC(O)CNS(=O)(=O)c1ccc(-c2ccc(S(=O)(=O)NCC(C)O)cc2)cc1 (stereo not given) | inconclusive: 178 µM [inhibitor, partial curve, poor fit] | –
O=Cc1cccn1Cc1ccccn1 | inconclusive: 3.16 µM [inhibitor, full curve, poor fit] | –
Cc1cc(C)c2sc(C)[n+](CCCS(=O)(=O)[O-])c2c1 | inconclusive: 50.1 µM [inhibitor, partial curve, poor fit] | –
Cc1ccc(-c2nc(CSc3ccc4c(c3)OCCO4)co2)cc1 | inconclusive: 35.5 µM [inhibitor, partial curve, poor fit] | –
COC(=O)c1cc(NC(=O)c2ccccc2)c(=O)oc1C/C=N\OCc1ccc(Cl)cc1Cl | inconclusive: 31.6 µM [inhibitor, single point] | –
CCC(=O)N1CCc2c(C(=O)N3CCN(c4ccccc4Cl)CC3)cccc21 | inactive | –
CCn1c(SCC(=O)c2ccc(Br)s2)nnc1-c1ccccc1 | inconclusive: 44.7 µM [inhibitor, partial curve, poor fit] | –

SMILES | Potency | activity change, negative = inhibition
COC(=O)c1ccc2nc(-c3ccc(OC)c(OC)c3)c(Cc3ccccc3C(F)(F)F)n2c1 | inconclusive: 39.8 µM [inhibitor, partial curve, poor fit] | –
Oc1ccc(Nc2ccnc(N3CC4CCC(C3)N4CC(F)(F)F)n2)cc1 | – | inactive: 3.57% [at 6.33 µM]
O=C1/C(=C/c2cccs2)CSc2ccccc21 | inconclusive: 79.4 µM [inhibitor, single point] | –
Cc1ccc(NC(=O)C2CCN(C(=O)c3ccco3)CC2)cc1C | inconclusive: 35.5 µM [inhibitor, single point] | –
CC[C@@H]1C(c2ccccc2)=NN(c2ccc(Br)cc2)[C@H]1C(=O)N1CCOC1=O | inconclusive: 100 µM [inhibitor, single point] | –
COc1ccc(-c2cc(-c3ccccc3)n[nH]2)c(O)c1 | inconclusive: 50.1 µM [inhibitor, partial curve, poor fit] | –
Cc1nc(C2CCCCN2C(=O)Cc2ccccc2)n[nH]1 (stereo not given) | inconclusive: 3.16 µM [inhibitor, full curve, poor fit] | –
CC(NC(=O)c1cccc(S(=O)(=O)N(C)C)c1)c1cc2ccccc2o1 (stereo not given) | inconclusive: 79.4 µM [inhibitor, partial curve, poor fit] | –
O=C(NCc1cccnc1)[C@H]1C[C@@H](O)[C@H](O)[C@@H]2N=C(Nc3ccc(Cl)cc3)S[C@@H]21 | inconclusive: 17.8 µM [inhibitor, partial curve, poor fit] | –
C[C@@H]1CCCCO[C@H](CN(C)S(=O)(=O)c2cn(C)cn2)[C@H](C)CN([C@@H](C)CO)C(=O)c2cc(NC(=O)c3ccccc3)ccc2O1 | inconclusive: 28.2 µM [inhibitor, single point] | –
CCOc1ccc(C2CC(=O)Nc3nc(SCc4ccccc4C)[nH]c(=O)c32)cc1OC (stereo not given) | inconclusive: 89.1 µM [inhibitor, partial curve, poor fit] | –
CCc1c(C)sc(NC(=O)/C=C/c2ccc(F)cc2)c1C#N | – | inconclusive: -34.7% [inhibitor]
COc1ccc(/C=C/C(=O)c2ccc(O)c(CCCl)c2)c(Cl)c1 | inconclusive: 35.5 µM [inhibitor, partial curve, poor fit] | –
CCO[C@H]1CN(C(=O)C(C)(C)Oc2ccc3c(c2)CCC3)C[C@@H]1O | inconclusive: 100 µM [inhibitor, single point] | –
COc1cccc(/C=C/c2nc3cc(C)c(C)cc3s2)c1OC | inactive | –
O=C1c2oc3ccc(Cl)cc3c(=O)c2C(c2ccco2)N1CCN1CCOCC1 (stereo not given) | inconclusive: 39.8 µM [inhibitor, partial curve, poor fit] | –
O=C(/C=C/c1ccccc1)c1ccc2cccc3c2c1CC3 | inactive | –
COc1cc2cnc(-c3ccccc3)cc2cc1OC | inactive | –
C=CCSc1nnc2c(n1)OC(c1cccnc1)Nc1ccccc1-2 (stereo not given) | inconclusive: 56.2 µM [inhibitor, partial curve, poor fit] | –
O=Cc1ccc(-c2ccc(I)cc2C(F)(F)F)o1 | inconclusive: 70.8 µM [inhibitor, partial curve, poor fit] | –
COc1ccccc1-c1ccc(/C=C2/C=C(C)OC2=O)o1 | inconclusive: 56.2 µM [inhibitor, partial curve, poor fit] | –
C=CCOC(=O)c1cc(-c2ccc(/C=C3\C(=O)NC(=O)C(C#N)=C3C)o2)ccc1Cl | active: 7.08 µM | –

SMILES | Potency | activity change, negative = inhibition
COc1ccccc1NC(=O)CSCc1ccc(Cl)c(Cl)c1 | inconclusive: 50.1 µM [inhibitor, partial curve, poor fit] | –
NC(=O)c1c(N)[nH]c(C(=O)c2ccccc2)c1-c1ccc(Br)cc1 | inactive | –
COc1ccc(-n2c(SCC(=O)NCc3ccco3)nc3sc4c(c3c2=O)CCN(C)C4)cc1 | inactive | –
CCOc1ccc(S(=O)(=O)Nc2ccc(C(=O)NCC(c3ccc(OC)cc3)N3CCOCC3)cc2)cc1 (stereo not given) | inconclusive: 6.31 µM [inhibitor, full curve] | –
CC(C)(CN1CCNCC1)NS(=O)(=O)c1ccc(Cl)cc1 | inconclusive: 50.1 µM [inhibitor, partial curve, poor fit] | –
Cc1ccccc1OCC(O)CNC1CCC(NCC(O)COc2ccccc2C)CC1 (stereo not given) | inconclusive: 44.7 µM [inhibitor, partial curve, poor fit] | –
CC(C)(C)c1ccc(-c2cc(C[C@H]3CNCC[C@H]3CC(=O)Nc3ccccc3)no2)cc1 | inconclusive: 28.2 µM [inhibitor, full curve, poor fit] | –
COc1ccc(C2=NN(c3nc4ccccc4s3)C(=O)/C2=C\N(C)C)cc1 | active: 22.4 µM | –
Clc1ccc(-c2nn3c(C4COc5ccccc5O4)nnc3s2)cc1 (stereo not given) | inconclusive: 79.4 µM [inhibitor, partial curve, poor fit] | –
FC(F)(F)c1ccccc1-c1cncnc1NCc1ccccc1 | inconclusive: 7.94 µM [inhibitor, partial curve, poor fit] | –
C=C(C)CN1CCN(c2nc3c(c(=O)[nH]c(=O)n3C)n2Cc2ccc(Cl)cc2)CC1 | inactive | –
COc1ccc(NC(=O)C2CCOC(C)(C)C2)cc1 (stereo not given) | inconclusive: 100 µM [inhibitor, single point] | –
c1cc(OCc2nc(-c3ccsc3)no2)cc(-n2cnnn2)c1 | inactive | –
CCC(C)Nc1nc(N)c([N+](=O)[O-])c(NCc2ccccc2)n1 (stereo not given) | inactive | –
Cc1ccccc1NC(=O)CN1CCCC1 | inconclusive: 1.41 µM [inhibitor, full curve, poor fit] | –
O=C1CN(c2ccccc2)C(=S)N1C(=O)c1ccc(Br)cc1 | inconclusive: 22.4 µM [inhibitor, single point] | –
Cc1cccc(N2CCN(S(=O)(=O)c3c(C)nc4scc(C)n4c3=O)CC2)c1C | inconclusive: 224 µM [inhibitor, partial curve, poor fit] | –
CCn1cc2nc(SCc3cc(C)ccc3C)n(CCc3ccccc3)c(=O)c2n1 | inactive | –
COc1ccc(CN(C)C(=O)c2cc(=O)[nH]c3ccccc23)c(OC)c1 | inactive | –
CC(C)(C)c1ccc(N=Cc2cccs2)cc1 | inconclusive: 50.1 µM [inhibitor, partial curve, poor fit] | –
Cc1ccc(-n2nnc(-c3cc4ccccc4nc3Cl)n2)cc1 | inconclusive: 70.8 µM [inhibitor, single point] | –

Filtered by structure, the compounds so far containing a tert-butyl group (2)
SMILES | Potency | activity change, negative = inhibition
CC(C)(C)c1ccc(-c2cc(C[C@H]3CNCC[C@H]3CC(=O)Nc3ccccc3)no2)cc1 | inconclusive: 28.2 µM [inhibitor, full curve, poor fit] | –
CC(C)(C)c1ccc(N=Cc2cccs2)cc1 | inconclusive: 50.1 µM [inhibitor, partial curve, poor fit] | –
